PubChem BioAssay AID504784 – Drosophila RNAi Screening Center – 2011

- Aim: 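Genome-wide knock-down for genes giving too much or too little stored lipid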 (primary screen)
- Cells: Drosophila Kc167 embryonic cells
- Knock-down reagent: long dsRNA against Drosophila genes, about 250 ng dsRNA per well
- Timing: 4 days
- Challenge: cells fed 400 µM oleic acid bound to BSA
- Measurement: 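Cells imaged and segmented; ratio of lipid droplet area to nuclear area, log-transformed, then normalised as a B-score over the screen; higher means more stored lipid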
- Scale: droplet/nuclear area B-score: higher = more stored lipid (overstorage)
In all, the deposit lists about 17,000 reagents; below is an unselected part of those with a known target gene and a result. 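Each column is one replicate's B-score; the combined score over replicates was not deposited, so single values may mislead.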 The numbers tell different reagents against one gene apart. Further read-outs or replicates are left out here.

| Target gene | reagent no. | droplet/nuclear area B-score, replicate 1 |
| --- | --- | --- |
| CG5532 | 1 | 2.96 |
| mol (moladietz) | 1 | -0.666 |
| mol (moladietz) | 2 | -0.553 |
| mol (moladietz) | 3 | -0.0587 |
| garz (gartenzwerg) | 1 | 3.24 |
| nrm (neuromusculin) | 1 | -0.406 |
| nrm (neuromusculin) | 2 | -1.57 |
| CG43896 | 1 | 0.0151 |
| CG15439 | 1 | 2.18 |
| CG6695 | 1 | -0.052 |
| CG8243 | 1 | 0.724 |
| CG8243 | 2 | -1.46 |
| CG13157 | 1 | -0.552 |
| Xrcc2 (X-ray repair cross complementing 2) | 1 | 0.455 |
| Adf1 (Adh transcription factor 1) | 1 | -0.444 |
| Adf1 (Adh transcription factor 1) | 2 | -1.37 |
| Rpt4R (Regulatory particle triple-A ATPase 4-related) | 1 | -2 |
| CG5808 | 1 | 9.47 |
| CG7841 | 1 | 2.13 |
| CG7668 | 1 | 0 |
| CG30043 | 1 | -0.774 |
| CG4511 | 1 | 2.23 |
| CG15366 (retired record) | 1 | 0.132 |
| Dpm1 (Dolichyl-phosphate mannosyltransferase subunit 1) | 1 | -0.644 |
| CG15638 | 1 | -0.452 |
| GstO2 (Glutathione S transferase O2) | 1 | 2.68 |
| Nup50 (Nucleoporin 50kD) | 1 | -1.87 |
| Alp7 (Alkaline phosphatase 7) | 1 | -0.68 |
| S-Lap1 (Sperm-Leucylaminopeptidase 1) | 1 | -0.0442 |
| CG12935 | 1 | 0.882 |
| CG9107 | 1 | -0.108 |
| mRpS6 (mitochondrial ribosomal protein S6) | 1 | -0.104 |
| CG12375 | 1 | -0.83 |
| Lac (Lachesin) | 1 | 0.442 |
| Obp56e (Odorant-binding protein 56e) | 1 | 1.04 |
| CG7290 | 1 | 0.604 |
| Gbp1 (Growth-blocking peptide 1) | 1 | 0.364 |
| Cfp1 (CXXC finger protein 1) | 1 | -1.29 |
| CG4730 | 1 | 0.903 |
| Spc25 | 1 | -0.225 |
| brv1 (brivido-1) | 1 | 0.329 |
| CG14223 | 1 | -0.165 |
| mv (mauve) | 1 | -0.213 |
| mv (mauve) | 2 | -0.861 |
| RyR (Ryanodine receptor) | 1 | 0.723 |
| Tsp42En (Tetraspanin 42En) | 1 | -0.297 |
| CG46301 | 1 | 0.698 |
| Lfg (Lifeguard) | 1 | -1.03 |
| CG13896 | 1 | 1.2 |
| CG42564 | 1 | 0.0173 |
| Anp (Andropin) | 1 | 1.6 |
| shi (shibire) | 1 | -1.75 |
| CG42789 | 1 | -0.531 |
| CG14234 | 1 | -0.332 |
| CG14234 | 2 | 0.558 |
| CG14312 | 1 | 0.336 |

In a second layout: results already given
{"Target gene":"CG13157","reagent no.":1,"droplet/nuclear area B-score, replicate 1":-0.552}
{"Target gene":"Xrcc2 (X-ray repair cross complementing 2)","reagent no.":1,"droplet/nuclear area B-score, replicate 1":0.455}
{"Target gene":"Adf1 (Adh transcription factor 1)","reagent no.":1,"droplet/nuclear area B-score, replicate 1":-0.444}
